Among all 210,000 compounds or so, about 5,900 (2.8%) were called active. Roughly 5% stayed inconclusive and do not appear here. The call rests on the fitted dose curve; in most records, active means well fitted activation curve with a large enough effect; inconclusive means small, poorly fitted or top-dose-only effect; inactive means no such curve, though single readings can be large or run the other way. The entries are a selection whose mix differs from that of the whole data set. Where no call is shown, the source filed none.
Potency means the concentration at half of the fitted maximal effect.

The assay is described as follows: qHTS Assay for Enhancers of SMN2 Splice Variant Expression. Further: nearly all actives have a fitted effect of over 55% in size. On activity change, positive = activation: % of control where 0% means no effect. The following applies: HEK293 SMN2-luciferase splicing reporter, luminescence, 30-36 h; activity change, positive = activation: at 46.1 µM (top of the series) unless noted. In short, it runs like this: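 HEK293 cells carry an SMN2 […]–luciferase reporter in which exon 7 inclusion puts luciferase in frame. Cells were plated 10-12 h before compound addition, then incubated 30-36 h at 37C. ONE-Glo luminescence was read; sodium butyrate at 4.5 mM final served as control.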
For `O=C1N=C(O)CN1/N=C\c1ccc(-c2ccc([N+](=O)[O-])cc2)o1`, the “activity change, positive = activation” value is inactive: -16.8% [at 20.6 µM].

For `CCOC(=O)c1cn(Cc2ccccc2)nn1`, the activity change, positive = activation is -9.23%.

Consider `C/C(N=NC(=[SH+])SCc1ccccc1)=C1\C=CC=CN1.[Cl][Cu]`, for which the activity change, positive = activation is inactive: -63.9% [at 9.22 µM].

With `c1ccc(CCc2nc(-c3ccccn3)no2)cc1`, the Potency was active: 11.2 µM.

Take `CCC1Oc2ccc(C)cc2N(CC(=O)NCCCN2CCN(Cc3ccccc3)CC2)C1=O` (centres undefined): the activity change, positive = activation is 34.9%.

As for `O=C(/C=C/c1cn(-c2ccccc2)nc1-c1cccnc1)c1ccco1`, the “activity change, positive = activation” value is inactive: -37%.

Take `O=C(CCn1c(=O)c2ccccc2n(Cc2cccnc2)c1=O)NCc1ccc2c(c1)OCO2`: the activity change, positive = activation worked out at 31.1%.

For the molecule `CC1=NN(c2nc3ccccc3[nH]2)C(=O)/C1=C/N(C)C`, the activity change, positive = activation is 42.7%.

For `Cc1cc(N2CCOCC2)nc2ccc(NC(=O)CCC(=O)N3CCCCC3)cc12`, the Potency is active: 8.91 µM.

`COc1ccc2c(CC(=O)OCC(=O)Nc3ccc4c(c3)OCO4)coc2c1`: the activity change, positive = activation worked out at 33.7%.

For `Cc1csc(NC(=O)CCc2c(C)nc3cc(-c4ccc(Cl)cc4)nn3c2C)n1`, the “activity change, positive = activation” value is inactive: -83.2%.

As for `Oc1ccc(/C=N/NC2=NCCCCC2)c(O)c1`, the Potency is active: 12.6 µM.

Consider `CC(C)CCNC(=O)CCS(=O)(=O)c1cccc2nonc12`, for which the activity change, positive = activation was determined as 23.9%.

`Clc1ccc(-c2csc3ncnc(N4CCc5ccccc5C4)c23)cc1`: the activity change, positive = activation is -32%.

With `COc1ccc(-c2c[n+](CC(=O)OC3CC(C)CCC3C(C)C)c3n2CCC3)cc1` (centres undefined), the “activity change, positive = activation” value is inactive: -77.9%.

Consider `CCCOc1ccc(NC(=O)C2CCCNC2=O)cc1` (centres undefined), for which the activity change, positive = activation worked out at 25.7%.

Turning to `CCOc1ccc(OCc2cccc(C(=O)N/N=C/c3cccnc3)c2)cc1`, the Potency was active: 0.126 µM.

For `COc1ccc(CCNC(=O)Cn2nc(C)n3c(cc4cc(F)ccc43)c2=O)cc1OC`, the “activity change, positive = activation” value was inactive: -9.25%.

In the case of `COc1ccc(N2CCN(C(=O)C3Cc4ccccc4CN3C(=O)c3ccccc3)CC2)cc1` (centres undefined), the activity change, positive = activation is 55.4%.

Take `Cc1ccc2c(c1)S/C(=C/c1ccc[n+](C)c1)N2CCO`: the activity change, positive = activation was -63.7%.

On to `CCOC(=O)N1CCN(C(=O)CSc2ccc3nnc(CCNC(=O)c4ccc(OC)cc4)n3n2)CC1`, for which the activity change, positive = activation is -37.5%.

As for `CCc1nnc(NC(=O)C2CCC2)s1`, the activity change, positive = activation is 46.5%.

Regarding `CSc1nc(-c2ccc(Cl)cc2)nn1S(=O)(=O)c1ccccc1`, the Potency is active: 12.6 µM.

Turning to `Cc1cccc(N2C(=O)CC(N3CCN(c4cccc(C(F)(F)F)c4)CC3)C2=O)c1` (centres undefined), the activity change, positive = activation worked out at 32.3%.

In the case of `Cc1cc(NCCCN(C)C)n2nc(-c3cccs3)cc2n1`, the activity change, positive = activation was -30.4%.

As for `Cc1ccc(CNC(=O)C2C3C=CC(C3)C2C(=O)O)cc1` (centres undefined), the activity change, positive = activation was determined as 25.2%.

`O=C(c1cccc(F)c1F)N1CCCC1`: the activity change, positive = activation worked out at 30.1%.

On to `Cc1onc(-c2c(Cl)cccc2Cl)c1C(=O)N/N=C(\N)COc1ccc(Cl)cc1`, for which the activity change, positive = activation was -76.9%.

Regarding `CCOCCc1nnc(NC(=O)c2cc(OC)c(OC)c(OC)c2)s1`, the Potency was active: 15.8 µM.

Values taken from PubChem BioAssay AID1458 (National Center for Advancing Translational Sciences (NCATS), 2008).
